The test addresses Recombinant Human MSP Receptor ECD-His tag (human) (UniProt Q04912). Kind of test: SPR (Biacore).

By UniProt entry, the sequences of proteins in these tests, tags left out. Residues count along the entry.
UniProt Q04912, residues 25-957: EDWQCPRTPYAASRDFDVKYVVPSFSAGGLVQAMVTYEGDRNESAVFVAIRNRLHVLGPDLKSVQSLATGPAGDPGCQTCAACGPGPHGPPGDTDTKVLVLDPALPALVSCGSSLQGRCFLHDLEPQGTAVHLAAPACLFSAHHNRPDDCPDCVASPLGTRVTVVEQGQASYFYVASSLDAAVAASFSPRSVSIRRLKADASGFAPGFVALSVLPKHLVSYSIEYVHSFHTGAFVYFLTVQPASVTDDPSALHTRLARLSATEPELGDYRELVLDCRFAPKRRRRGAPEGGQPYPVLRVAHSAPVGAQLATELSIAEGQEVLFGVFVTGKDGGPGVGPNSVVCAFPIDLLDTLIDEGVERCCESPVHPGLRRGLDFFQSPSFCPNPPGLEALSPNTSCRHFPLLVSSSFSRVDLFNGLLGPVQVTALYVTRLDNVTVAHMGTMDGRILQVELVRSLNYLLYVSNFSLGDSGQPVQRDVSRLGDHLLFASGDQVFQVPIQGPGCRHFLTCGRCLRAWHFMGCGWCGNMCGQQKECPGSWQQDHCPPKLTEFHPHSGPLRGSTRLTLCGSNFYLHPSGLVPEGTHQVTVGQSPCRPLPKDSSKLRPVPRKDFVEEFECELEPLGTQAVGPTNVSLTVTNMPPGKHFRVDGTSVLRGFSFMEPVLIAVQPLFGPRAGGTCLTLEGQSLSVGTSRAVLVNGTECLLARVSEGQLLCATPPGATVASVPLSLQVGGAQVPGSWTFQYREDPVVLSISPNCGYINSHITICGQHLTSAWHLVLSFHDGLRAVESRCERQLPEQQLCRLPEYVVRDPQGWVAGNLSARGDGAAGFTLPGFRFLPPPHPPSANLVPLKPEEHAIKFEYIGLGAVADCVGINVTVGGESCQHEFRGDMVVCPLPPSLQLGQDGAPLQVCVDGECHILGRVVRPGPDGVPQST

These are yes or no findings as the source states them, for the method shown. Some results given as binding are weak or reduced against the parent protein; the word gives no strength.

B1: DVD2340 (bispecific antibody)
VH: QVQLQESGPGLVKPSEILSLTCTVSGGSISSHYWSWVRQPPGKGLEWIGYIYYSGSTNYNPSLKSRVTISVDTSKNQFSLNLSSVTAADTAVYYCARIPNYYDRSGYYPGYWYFDLWGRGTLVTVSSASTKGPEVQLLESGGGLVQPGGSLRLSCTASGFTFSSYAMNWVRQAPGKGLEWVSAISGSGGTTFYADSVKGRFTISRDNSRTTLYLQMNSLRAEDTAVYYCAKDLGWSDSYYYYYGMDVWGQGTTVTVSS
VL: QAVLTQPSSLSAPPGASASLTCTLRSGFNVDSYRISWYQQKPGSPPQYLLRYKSDSDKQQGSGVPSRFSGSKDASANAGILLISGLQSEDEADYYCMIWHSSAWVFGGGTKLTVLRQPKAAPDIQMTQFPSSLSASVGDRVTITCRASQGIRNDLGWYQQKPGKAPKRLIYAASRLHRGVPSRFSGSGSGTEFTLTISSLQPEDFATYYCLQHNSYPCSFGQGTKLEIK
Turning to B1, the binding entry is reported as “binds”.

B2: DVD2336 (bispecific antibody)
VH: QVQLQESGPGLVKPSEILSLTCTVSGGSISSHYWSWVRQPPGKGLEWIGYIYYSGSTNYNPSLKSRVTISVDTSKNQFSLNLSSVTAADTAVYYCARIPNYYDRSGYYPGYWYFDLWGRGTLVTVSSASTKGPEVQLVQSGGGLVKPGGSLRLSCAASGFTFSSFAMHWVRQAPGKGLEWISVIDTRGATYYADSVKGRFTISRDNAKNSLYLQMNSLRAEDTAVYYCARLGNFYYGMDVWGQGTTVTVSS
VL: QAVLTQPSSLSAPPGASASLTCTLRSGFNVDSYRISWYQQKPGSPPQYLLRYKSDSDKQQGSGVPSRFSGSKDASANAGILLISGLQSEDEADYYCMIWHSSAWVFGGGTKLTVLRQPKAAPEIVLTQSPGTLSVSPGERATLSCRASQSIGSSLHWYQQKPGQAPRLLIKYASQSLSGIPDRFSGSGSGTDFTLTISRLEPEDFAVYYCHQSSRLPHTFGQGTKVEIK
For B2, the binding entry is reported as “binds”.
